# Assay results reported in PMC4695028.
# By UniProt entry, the sequences of proteins in these tests, tags left out.
# UniProt P40763: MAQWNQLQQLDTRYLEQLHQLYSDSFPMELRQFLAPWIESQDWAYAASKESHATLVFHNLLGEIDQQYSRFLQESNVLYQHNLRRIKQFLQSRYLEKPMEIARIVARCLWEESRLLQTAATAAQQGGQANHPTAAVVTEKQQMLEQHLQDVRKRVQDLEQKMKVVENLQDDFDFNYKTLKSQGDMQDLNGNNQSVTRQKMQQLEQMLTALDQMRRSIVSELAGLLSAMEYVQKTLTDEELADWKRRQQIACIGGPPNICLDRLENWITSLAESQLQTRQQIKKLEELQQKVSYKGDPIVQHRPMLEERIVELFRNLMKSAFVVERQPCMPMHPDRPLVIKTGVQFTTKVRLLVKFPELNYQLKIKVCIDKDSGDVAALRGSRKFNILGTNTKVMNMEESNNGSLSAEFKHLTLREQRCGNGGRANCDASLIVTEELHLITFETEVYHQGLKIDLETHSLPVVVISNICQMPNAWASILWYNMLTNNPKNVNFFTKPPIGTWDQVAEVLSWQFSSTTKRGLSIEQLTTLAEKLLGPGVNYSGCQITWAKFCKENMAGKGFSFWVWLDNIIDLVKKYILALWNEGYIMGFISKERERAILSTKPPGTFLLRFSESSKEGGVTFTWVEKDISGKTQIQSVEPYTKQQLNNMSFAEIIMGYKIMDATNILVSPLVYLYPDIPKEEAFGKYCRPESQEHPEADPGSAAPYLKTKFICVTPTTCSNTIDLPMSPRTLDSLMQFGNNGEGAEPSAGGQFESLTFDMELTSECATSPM
# UniProt P09429: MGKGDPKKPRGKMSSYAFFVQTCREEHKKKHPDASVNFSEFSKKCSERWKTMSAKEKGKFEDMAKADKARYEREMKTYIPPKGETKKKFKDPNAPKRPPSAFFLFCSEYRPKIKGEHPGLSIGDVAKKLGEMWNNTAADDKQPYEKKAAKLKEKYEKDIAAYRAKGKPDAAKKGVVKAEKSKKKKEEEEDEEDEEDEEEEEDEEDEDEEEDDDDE
# No constants are given. Whether binding was seen depends on the method and setting. Binding seen in cells or lysates may run through a third protein. Some entries that bind do so weakly or less than the wild type.
# Molecular target: STAT3-P^Y705 (human (endogenous in Su-DHL6 and Su-DHL8)) (UniProt P40763)
# Experiment: co-IP; Su-6 and Su-8 cell extracts in RIPA buffer, 200 ug protein, 4°C overnight with anti-STAT3-P^Y705 or anti-HMGB1 antibody or control IgG, Protein A/G Plus-Agarose, blot with the other antibody; control cells and cells treated with IL-10 for 4 hours (binding increased with IL-10)
substance,measurement,value
High mobility group protein B 1 (from UniProt P09429 1-215),binding,binds weakly
